# Source: patent US7524503B2, “Human cytomegalovirus (HCMV) cytotoxic T cell epitopes, polyepitopes compositions comprising same and diagnostic and prophylactic and therapeutic uses therefor” (priority 2001, dated 2009)
# “Also recorded” adds a separate entry of the source. Some results come without the dose or concentration used.
# System: peptide-sensitized autologous and allogeneic PHA blasts or LCLs
# Test: HLA class I restriction analysis with CTL lines
# Assay type: cell-based, human
# Conditions: 20mer peptides / minimal sequence, Table 4
row,Sequence,HLA Restriction
1,AHELVCSMENTRATKMQVIG,HLA B57
2,ATVQGQNLKYQEFFWDANDI,HLA B44
3,FEQPTETPPEDLDTLSLAIE (human cytomegalovirus IE2 CTL epitope peptide),HLA B41
4,IIKPGKISHIMLDVAFTSHE,HLA B35
5,ILARNLVPMVATVQGQNLKY,HLA A2
6,IQIIYTRNHEVKSEVDAVRC,HLA A2
7,LNIPSINVHHYPSAAERKHR,HLA B35
8,LTVSGLAWTRQQNQWKEPDV,HLA B8
9,MNGQQIFLEVQAIRETVELR,HLA B57 & B58
10,MQLIPDDYSNTHSTRYVTVK (human cytomegalovirus gB CTL epitope peptide),HLA DR7
11,PQYSEHPTFTSQYRIQGKLE,HLA A24; also recorded: HLA A1
12,PRVTSPTHPLSQMNHPPLPD,HLA B35
13,PVDLLGALNLCLPLMQKFPK (human cytomegalovirus IE2 CTL epitope peptide),HLA A1/B8
14,QEFFWDANDIYRIFAELEGV,HLA B44; also recorded: HLA A1/A24
15,QYDPVAALFFFDIDLLLQRG,HLA B35
16,RQTEKHELLVLVKKAQLNRH,HLA DR*
17,RSYAYIYTTYLLGSNTEYVA (human cytomegalovirus gB CTL epitope peptide),HLA B41
18,RVKIDEVSRMFRNTNRSLEY,HLA A1/B8
19,SICPSQEPMSIYVYALPLKM,HLA B35
20,SSSSSSCSSASDSESESEEM (human cytomegalovirus IE2 CTL epitope peptide),HLA B35
21,TAAKAYAVGQFEQPTETPPE (human cytomegalovirus IE2 CTL epitope peptide),HLA B41
22,THQLCPRSSDYRNMIIHAAT (human cytomegalovirus IE2 CTL epitope peptide),HLA A1/B8
23,TRATKMQVIGDQYVKVYLES,HLA B57
24,TYEKYGNVSVFETSGGLVVF (human cytomegalovirus gB CTL epitope peptide),HLA A29
25,VFTWPPWQAGILARNLVPMV,HLA A2
26,VKSEVDAVRCRLGTMCNLAL,HLA A2
27,VLCCYVLEETSVMLAKRPLI (human cytomegalovirus IE1 CTL epitope peptide),HLA A2
28,YRNMIIHAATPVDLLGALNL (human cytomegalovirus IE2 CTL epitope peptide),HLA A1/B8/B35; also recorded: HLA A2
29,YYTSAFVFPTKDVALRHVVC,HLA B35
